The values that follow come from article PMC6426930.

The chains behind the UniProt entries cited, without tags or fusion partners. Where a name states a change or a piece, a line headed by the entry shows the natural chain unless it says otherwise.
UniProt P19447: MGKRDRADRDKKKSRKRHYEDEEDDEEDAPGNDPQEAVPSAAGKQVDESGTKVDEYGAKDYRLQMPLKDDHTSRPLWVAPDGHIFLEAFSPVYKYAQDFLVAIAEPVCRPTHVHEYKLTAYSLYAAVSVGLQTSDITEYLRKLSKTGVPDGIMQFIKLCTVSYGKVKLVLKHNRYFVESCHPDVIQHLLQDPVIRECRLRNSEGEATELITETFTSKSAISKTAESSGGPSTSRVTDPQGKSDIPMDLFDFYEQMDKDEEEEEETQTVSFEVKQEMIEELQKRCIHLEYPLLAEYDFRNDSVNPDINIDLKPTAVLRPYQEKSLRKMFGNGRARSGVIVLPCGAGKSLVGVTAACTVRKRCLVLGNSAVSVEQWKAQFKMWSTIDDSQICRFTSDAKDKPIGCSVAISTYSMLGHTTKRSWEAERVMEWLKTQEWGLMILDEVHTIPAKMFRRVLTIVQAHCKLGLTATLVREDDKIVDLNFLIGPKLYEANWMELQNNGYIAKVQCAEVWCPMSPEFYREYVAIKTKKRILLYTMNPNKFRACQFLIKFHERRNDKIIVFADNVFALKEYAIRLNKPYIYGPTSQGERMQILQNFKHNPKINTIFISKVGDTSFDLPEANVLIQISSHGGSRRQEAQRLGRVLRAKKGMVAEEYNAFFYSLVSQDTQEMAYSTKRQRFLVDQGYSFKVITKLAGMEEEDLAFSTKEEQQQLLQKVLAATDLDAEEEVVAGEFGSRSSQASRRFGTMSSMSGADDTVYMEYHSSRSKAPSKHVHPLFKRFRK
UniProt Q92830: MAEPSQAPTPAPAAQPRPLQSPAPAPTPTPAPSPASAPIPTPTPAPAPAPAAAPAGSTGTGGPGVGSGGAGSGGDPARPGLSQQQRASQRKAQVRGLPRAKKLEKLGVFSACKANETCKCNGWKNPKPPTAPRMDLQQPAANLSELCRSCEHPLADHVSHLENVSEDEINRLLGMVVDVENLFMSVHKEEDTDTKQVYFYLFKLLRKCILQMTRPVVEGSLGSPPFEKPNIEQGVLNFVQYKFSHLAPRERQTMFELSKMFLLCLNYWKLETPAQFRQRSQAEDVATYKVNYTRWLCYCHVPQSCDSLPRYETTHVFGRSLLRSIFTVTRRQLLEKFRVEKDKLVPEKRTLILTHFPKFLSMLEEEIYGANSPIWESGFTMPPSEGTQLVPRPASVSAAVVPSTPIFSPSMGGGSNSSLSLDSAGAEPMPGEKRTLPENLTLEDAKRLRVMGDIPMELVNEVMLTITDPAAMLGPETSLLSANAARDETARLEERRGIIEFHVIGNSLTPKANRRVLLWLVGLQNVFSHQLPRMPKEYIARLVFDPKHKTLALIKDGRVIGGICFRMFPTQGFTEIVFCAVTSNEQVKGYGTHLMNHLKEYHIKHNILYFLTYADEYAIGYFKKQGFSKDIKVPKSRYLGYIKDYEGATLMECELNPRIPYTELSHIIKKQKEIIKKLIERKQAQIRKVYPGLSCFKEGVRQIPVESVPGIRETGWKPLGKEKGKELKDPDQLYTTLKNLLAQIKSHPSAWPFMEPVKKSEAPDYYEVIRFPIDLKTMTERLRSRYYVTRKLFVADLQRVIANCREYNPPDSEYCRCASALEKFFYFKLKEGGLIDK
UniProt Q92831: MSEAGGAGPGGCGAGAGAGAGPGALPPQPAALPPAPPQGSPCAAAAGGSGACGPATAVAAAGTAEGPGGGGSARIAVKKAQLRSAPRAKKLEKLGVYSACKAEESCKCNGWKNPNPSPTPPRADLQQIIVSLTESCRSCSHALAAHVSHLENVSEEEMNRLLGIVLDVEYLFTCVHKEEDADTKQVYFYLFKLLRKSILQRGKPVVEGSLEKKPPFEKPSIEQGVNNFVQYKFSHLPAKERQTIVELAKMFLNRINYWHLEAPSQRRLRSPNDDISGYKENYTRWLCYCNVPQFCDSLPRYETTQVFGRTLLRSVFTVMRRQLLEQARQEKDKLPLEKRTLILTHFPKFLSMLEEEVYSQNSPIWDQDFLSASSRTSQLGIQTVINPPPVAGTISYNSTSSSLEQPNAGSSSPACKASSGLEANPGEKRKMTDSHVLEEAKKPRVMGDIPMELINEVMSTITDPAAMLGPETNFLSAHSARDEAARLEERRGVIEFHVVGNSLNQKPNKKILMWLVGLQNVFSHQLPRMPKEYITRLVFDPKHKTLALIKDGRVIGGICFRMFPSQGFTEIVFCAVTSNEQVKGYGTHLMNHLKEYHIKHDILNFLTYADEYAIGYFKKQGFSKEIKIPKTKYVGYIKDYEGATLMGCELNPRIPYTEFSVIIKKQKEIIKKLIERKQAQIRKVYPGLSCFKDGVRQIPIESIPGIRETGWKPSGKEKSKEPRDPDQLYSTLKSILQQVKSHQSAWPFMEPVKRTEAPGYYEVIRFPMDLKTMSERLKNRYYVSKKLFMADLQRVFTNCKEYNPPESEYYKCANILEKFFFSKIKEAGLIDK
UniProt P32780: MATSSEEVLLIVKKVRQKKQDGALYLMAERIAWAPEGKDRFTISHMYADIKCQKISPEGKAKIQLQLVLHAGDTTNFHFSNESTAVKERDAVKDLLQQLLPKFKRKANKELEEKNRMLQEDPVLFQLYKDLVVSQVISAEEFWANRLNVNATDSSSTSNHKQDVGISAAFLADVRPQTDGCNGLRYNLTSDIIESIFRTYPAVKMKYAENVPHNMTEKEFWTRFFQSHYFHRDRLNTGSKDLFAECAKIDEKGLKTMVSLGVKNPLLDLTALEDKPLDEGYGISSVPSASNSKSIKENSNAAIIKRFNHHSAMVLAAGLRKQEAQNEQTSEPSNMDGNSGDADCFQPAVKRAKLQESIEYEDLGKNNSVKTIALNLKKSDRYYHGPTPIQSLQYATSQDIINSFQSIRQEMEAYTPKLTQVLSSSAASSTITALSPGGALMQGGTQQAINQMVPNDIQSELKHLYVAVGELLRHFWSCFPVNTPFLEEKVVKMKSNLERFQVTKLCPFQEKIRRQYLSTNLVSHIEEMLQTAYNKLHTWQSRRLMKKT
UniProt O94864: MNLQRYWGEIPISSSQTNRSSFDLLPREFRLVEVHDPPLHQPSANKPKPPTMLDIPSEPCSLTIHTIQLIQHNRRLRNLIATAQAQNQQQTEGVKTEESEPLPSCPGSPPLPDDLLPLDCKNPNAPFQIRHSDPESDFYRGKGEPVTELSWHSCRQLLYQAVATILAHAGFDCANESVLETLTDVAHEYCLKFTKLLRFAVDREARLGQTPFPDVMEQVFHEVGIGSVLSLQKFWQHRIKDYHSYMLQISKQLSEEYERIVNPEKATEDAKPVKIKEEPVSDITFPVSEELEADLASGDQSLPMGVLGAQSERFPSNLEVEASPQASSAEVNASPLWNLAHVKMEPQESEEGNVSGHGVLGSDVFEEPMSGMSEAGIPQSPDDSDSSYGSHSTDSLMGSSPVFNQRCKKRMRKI

Experiment [1] addresses XPB fused C-terminally to GFP, expressed from the endogenous XPB locus (U2OS^XPB::GFP) (human (endogenous in U2OS)) (UniProt P19447). The experiment can be described thus: co-IP; GFP-trap immunoprecipitation from CRISPR/Cas9 engineered U2OS^XPB::GFP cells; immunoblot (Supplementary Fig. 3b). In general terms: A western blot detects proteins with antibodies after separation by electrophoresis.

Experiment [2] deals with GFP-tagged XPB^WT (wild-type XPB stably expressed in XP-B/CS^F99S + XPB^WT cells) (human) (UniProt P19447). Nature of the experiment: co-IP; GFP-Trap immunoprecipitation of GFP-tagged XPB^WT from nuclear extracts of stably transfected XP-B/CS^F99S + XPB^WT cells, washed with 200 mM salt; immunoblot.
In experiment [3] the target is Recombinant FLAG tagged KAT2A (rKAT2A) (human) (UniProt Q92830). The experiment can be described thus: pull-down; purified recombinant core TFIIH incubated with purified Flag-KAT2A (400 ng); precipitated with polyclonal rabbit anti-KAT2A antibody, unspecific IgG as control; immunoblot for XPB, p52 and KAT2A; both purified.
Experiment [4] deals with Recombinant wild-type XPB (rXPB^WT) (human) (UniProt P19447). The experiment can be described thus: pull-down; XPB held on anti-XPB covered beads, washed three times, then incubated 1 h at 4 °C with purified Flag-KAT2A in lysis buffer (20 mM Tris-HCl pH 7.5, 150 mM KCl, 20% glycerol, 0.1% NP40); washed with RIPA buffer; immunoblot; both purified.
Experiment [5] deals with Recombinant XPB with the XP-B/CS mutation F99S (rXPB^F99S) (human) (UniProt P19447). The description is as above.
In experiment [6] the target is XPB fused C-terminally to GFP, expressed from the endogenous XPB locus (U2OS^XPB::GFP) (human (endogenous in U2OS)) (UniProt P19447). The experiment can be described thus: co-IP.

Results are given in words; binding and its absence hold for the method and conditions named. For some of these results: In cells and extracts the contact can be indirect. Some entries that bind do so weakly or less than the wild type.

For “KAT2A (GCN5), endogenous (from UniProt Q92830 1-837)”, the binding entry in experiment [1] and in experiment [2] was “binds” throughout.

Take “KAT2B (PCAF), endogenous (from UniProt Q92831 1-832)”: the binding result in experiment [2] is recorded as “no binding”.

On to “Purified recombinant wild-type core TFIIH (cIIH-XPB^WT) (from UniProt P19447 1-782; P32780 1-548; Q92759 1-462; Q13888 1-395; Q13889 1-308) (complex)”, for which the binding entry in experiment [3] is recorded as “binds”.

In the case of “Recombinant FLAG tagged KAT2A (rKAT2A) (from UniProt Q92830 1-837) (enzyme)”, the binding result in experiment [4] and in experiment [5] was “binds” each time.

“SUPT7L (a subunit of hSAGA), endogenous (from UniProt O94864 1-414)”: the binding entry in experiment [1] and in experiment [2] was “binds” in each case.

“p62 subunit of TFIIH, endogenous (from UniProt P32780 1-548)”: in experiment [2], the binding entry is “binds”.

B1: ZZZ3 (hATAC), endogenous (protein, UniProt Q8IYH5 1-903)
chain: MAASRSTRVTRSTVGLNGLDESFCGRTLRNRSIAHPEEISSNSQVRSRSPKKRPEPVPIQKGNNNGRTTDLKQQSTRESWVSPRKRGLSSSEKDNIERQAIENCERRQTEPVSPVLKRIKRCLRSEAPNSSEEDSPIKSDKESVEQRSTVVDNDADFQGTKRACRCLILDDCEKREIKKVNVSEEGPLNSAVVEEITGYLAVNGVDDSDSAVINCDDCQPDGNTKQNSIGSYVLQEKSVAENGDTDTQTSMFLDSRKEDSYIDHKVPCTDSQVQVKLEDHKIVTACLPVEHVNQLTTEPATGPFSETQSSLRDSEEEVDVVGDSSASKEQCKENTNNELDTSLESMPASGEPEPSPVLDCVSAQMMSLSEPQEHRYTLRTSPRRAAPTRGSPTKNSSPYRENGQFEENNLSPNETNATVSDNVSQSPTNPGEISQNEKGICCDSQNNGSEGVSKPPSEARLNIGHLPSAKESASQHITEEEDDDPDVYYFESDHVALKHNKDYQRLLQTIAVLEAQRSQAVQDLESLGRHQREALKNPIGFVEKLQKKADIGLPYPQRVVQLPEIVWDQYTHSLGNFEREFKNRKRHTRRVKLVFDKVGLPARPKSPLDPKKDGESLSYSMLPLSDGPEGSSSRPQMIRGRLCDDTKPETFNQLWTVEEQKKLEQLLIKYPPEEVESRRWQKIADELGNRTAKQVASRVQKYFIKLTKAGIPVPGRTPNLYIYSKKSSTSRRQHPLNKHLFKPSTFMTSHEPPVYMDEDDDRSCFHSHMNTAVEDASDDESIPIMYRNLPEYKELLQFKKLKKQKLQQMQAESGFVQHVGFKCDNCGIEPIQGVRWHCQDCPPEMSLDFCDSCSDCLHETDIHKEDHQLEPIYRSETFLDRDYCVSQGTSYNYLDPNYFPANR
Take B1: the binding entry in experiment [6] is reported as “binds”.
